“Also recorded” adds a separate entry of the source. For at least one compound, name, drawing or mass did not settle the structure.
Assays:
[1] = system: Ccl2, Il-6, Il-8 expression in MIO-M1 cells; test: IL-1β stimulation of MIO-M1 cells, cytokine gene expression by QRT-PCR; assay type: cell-based, human; conditions: 1 μg/μl steroid, 1 ng/μl IL-1β, 12 h, versus IL-1β alone
Excerpt: (§1) The immortalised retinal cells used were as follows: MIO-M1 cells (Muller cell-derived; Müller 1 Moorefields, Institute of Ophthalmology, Dr A. Limb, Institute of Ophthalmology, University College, UK); ARPE19 (RPE-derived; ATCC CRL-2302, American Tissue Culture Collection, VA, USA); and 661W cells (photoreceptor-like derived; kindly gifted by Dr Muayyad R. Al-Ubaidi, Department of Cell Biology, University of Oklahoma Health Sciences Centre, Oklahoma City, OK, USA). Cells were authenticated and validated from Cell Bank Australia.
(§2) IL-1β and TNF-α were administered to MIO-M1 cells to initiate an inflammatory response in order to test the anti-inflammatory properties of the selected corticosteroids. MIO-M1 cells were grown to a cell density of 50,000 cells per well in a 24 well plate using growth media and foetal bovine serum as described (Section 2.1.1). MIO-M1 cells were challenged with either 1 ng/μl of IL-1β or TNF-α (R&D Systems, MN, USA). Experimental wells were treated with either 1 μg/μl FA, TA or Dexamethasone. […]
(§3) Following purification of RNA, cDNA was synthesized using the Bioline Tetro kit (Bioline, Australia) as per the manufacturer's instructions. Quantitative Real Time Polymerase Chain Reaction (QRT-PCR) was undertaken to profile gene expression changes in animal and cell culture samples. […] Data was analysed using the QuantStudio 12K Flex Software (Applied Biosystems, USA).

[2] = system: Ccl2, Il-6, Il-8 expression in MIO-M1 cells; test: TNF-α stimulation of MIO-M1 cells, cytokine gene expression by QRT-PCR; assay type: cell-based, human; conditions: 1 μg/μl steroid, 1 ng/μl TNF-α, 12 h, versus TNF alone
Excerpt: as §1, §2, §3

[3] = system: Il-1b-stimulated MIO-M1 cells; test: Co-incubation with selective receptor antagonists in Il-1b-stimulated MIO-M1 cells; assay type: cell-based, human; conditions: stimulated Muller (MIO-M1) cells, receptor blockers
Description: FIG. 3 Contribution of glucocorticoid and mineralocorticoid receptor signalling to the anti-inflammatory effect of FA in vitro.
IL-1β and TNF-α were administered to MIO-M1 cells to initiate an inflammatory response in order to test the anti-inflammatory properties of the selected corticosteroids. MIO-M1 cells were grown to a cell density of 50,000 cells per well in a 24 well plate using growth media and foetal bovine serum as described (Section 2.1.1). MIO-M1 cells were challenged with either 1 ng/μl of IL-1β or TNF-α (R&D Systems, MN, USA). Experimental wells were treated with either 1 μg/μl FA, TA or Dexamethasone. Twelve hours post addition, growth medium was removed from each well and replaced with 860 μl of TRIzol (Thermo Fisher Scientific, MA, USA), agitated approximately 20 times and then placed in a clean 1.5 ml Eppendorf tube to extract ribonucleic acid (RNA).
as §3, with “samples. TaqMan hydrolysis probes (Applied Biosystems, USA) and Gene Expression Master Mix (Applied Biosystems, USA) were used.” for “samples.”

[4] = system: C57BL/6J mice, photo-oxidative damage (PD); test: Photo-oxidative damage (PD) model of retinal degeneration, intravitreal injection; assay type: in vivo, mouse; conditions: 5 days PD; for ONL thickness (OCT): 1-2 mm and 2-3 mm from the optic nerve, about 1 mg/ml in vitreous, versus controls; for IBA1+ macrophages in the outer retina: versus control; for TUNEL+ photoreceptors (outer retina): versus vehicle/controls
Excerpt: All experiments conducted were in accordance with the ARVO Statement for Use of Animals in Ophthalmic and Vision Research, and with approval from the ANU Animal Experimentation Ethics Committee (AEEC, protocol #A2014/56). C57BL/6J mice aged 60 post-natal days were used in this study. Animals were born, reared and held under dim light conditions (5 lux) prior to photo-oxidative damage.
In vivo cross-sectional and fundus images of the mouse retina were acquired using Optical Coherence Tomography (OCT).
Intravitreal injections were performed on C57BL/6J mice aged 60 post-natal days. Treatments included exposure to FA or TA dissolved in Suspension (comprised of 0.5% w/v carboxymethyl cellulose and 0.4% v/v Tween 80). The final concentration of drug in the vitreous chamber is estimated to be as 1 mg/ml.
Age-matched C57BL/6J mice (60 post-natal days) were exposed to continuous 100K lux white LED light for 5 days with access to food and water ad libitum. During this time, 1% atropine sulphate (Minims 1% atropine sulphate eye drops; Bausch and Lomb, USA) was administered to both eyes twice daily to dilate the pupils. Animals were subsequently euthanised with carbon dioxide (CO2).
Electroretinography (ERG) was used to assess the retinal function response of rodents to full-field flash stimuli under scotopic conditions. Dim-reared control and photo-oxidative damaged animals were used, using known methods.
Animals were dark-adapted overnight before the commencement of ERG experiments. Animals were anaesthetised as previously described, and all retinal recordings were undertaken in a dark room with minimal red light source.
Terminal deoxynucleotidyl transferase (Tdt) dUTP nick end labelling (TUNEL) is an established technique used to detect apoptotic and necrotic cells.
The retina was evenly divided into 8 quadrants. Each quadrant was viewed using a confocal microscope (LSM 5, Zeiss, Germany) and TUNEL^+ and IBA1^+ cells were identified and counted. Data were graphed and analysed using Prism 6 software (GraphPad Software, CA, USA).

## CC1(C)O[C@@H]2C[C@H]3[C@@H]4CCC5=CC(=O)C=C[C@]5(C)[C@@]4(F)[C@@H](O)C[C@]3(C)[C@]2(C(=O)CO)O1 [TA, triamcinolone acetonide]
[1]
  Ccl2, Il-6, and Il-8 expression after IL-1β stimulation: around one-third of the stimulated levels; also recorded: drastically reduced; also recorded: significant reduction
[2]
  Ccl2, Il-6, and Il-8 expression after TNF stimulation: falling significantly; also recorded: drastically reduced; also recorded: significantly inhibited
[3]
  receptor mediating the impact on expression of CCL2, IL-6 and IL-8: This pattern was also observed; also recorded: dependent on glucocorticoid receptor signalling
[4]
  ONL thickness (OCT): no significant change
  IBA1+ macrophages in the outer retina: significant reduction
  TUNEL+ photoreceptors (outer retina): no significant change
[4]; listed as Suspension+TA
  ONL thickness (OCT): not observed
  IBA1+ macrophages in the outer retina: significant decrease
  TUNEL+ photoreceptors (outer retina): unlike
